This is one part of the list. Many values rest on one well or one pass, so single values are uncertain.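 Imaging used 1,536-well plates; nuclei positive for cleaved PARP by antibody were divided by total DNA-stained nuclei to yield the apoptosis fraction. Doses for screening kept most cells viable, and cell lines differ markedly in resting and induced cleaved-PARP levels.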
system: LOXIMVI; experiment: cleaved PARP positive nuclei fraction relative to DMSO control; melanoma cells; higher = more apoptosis; conditions: library dose: low library concentration; 72 h

SMILES | cleaved PARP positive nuclei fraction
NCC(=O)Nc1ccc(-n2nc(C(F)(F)F)cc2-c2ccc3c(ccc4ccccc43)c2)cc1 + O=S(=O)(c1ccccc1)N(CC(F)(F)F)c1ccc(C(O)(C(F)(F)F)C(F)(F)F)cc1 [T0901317] (first compound 1 µM, partner dose 1.4 µM) | 76.6%
CCCCCCCCCCCC1=C(O)C(=O)C=C(O)C1=O [Embelin] + CC(C)CCN1c2nc(Nc3cc(F)c(O)c(F)c3)ncc2N(C)C(=O)C1C [BID1870] (first compound 1.2 µM, partner dose 0.2 µM) | 13.5%
CCc1ccc(CCOc2ccc(CC3SC(=O)NC3=O)cc2)nc1 (stereo unspecified) [pioglitazone] + Oc1nc(-c2ccc(C(F)(F)F)cc2)nc2c1CSCC2 [XAV939] (first compound 2 µM, partner dose 2 µM) | 76.3%
COc1ccc2c(c1)CCC1C2CCC2(C)C(NCCCCCCN3C(=O)C=CC3=O)CCC12 (stereo unspecified) + COc1cc2ncnc(Nc3ccc(Oc4ccccc4)cc3)c2cc1OC [SrcI1] (first compound 0.4 µM, partner dose 2 µM) | 95.2%
COc1ccc2c(c1)CCC1C2CCC2(C)C(NCCCCCCN3C(=O)C=CC3=O)CCC12 (stereo unspecified) + Oc1cc(-c2nc(-c3ccccc3)[nH]c2-c2ccncc2)ccc1Cl [L779450] (first compound 0.4 µM, partner dose 0.2 µM) | 67.4%
COc1cc2ncnc(Nc3ccc(Oc4ccccc4)cc3)c2cc1OC + Cc1cc([N+](=O)[O-])ccc1NS(=O)(=O)c1cc(Cl)ccc1Cl [FH535] (first compound 2 µM, partner dose 1 µM) | 62.5%
O=C(Nc1ccccc1)c1cc([N+](=O)[O-])ccc1Cl + CCN(CC)CCCCNc1ncc2cc(-c3cc(OC)cc(OC)c3)c(NC(=O)NC(C)(C)C)nc2n1 [PD173074] (first compound 2 µM, partner dose 0.1 µM) | 155%
N#Cc1c(O)c2c(-c3ccc(-c4ccccc4O)cc3)csc2[nH]c1=O + O=C(O)C(=O)Nc1sc2c(c1C(=O)O)CCNC2 [TCS401] (first compound 2 µM, partner dose 1.66667 µM) | 36.3%
NCC(=O)Nc1ccc(-n2nc(C(F)(F)F)cc2-c2ccc3c(ccc4ccccc43)c2)cc1 + Cc1cc([N+](=O)[O-])ccc1NS(=O)(=O)c1cc(Cl)ccc1Cl [FH535] (first compound 1 µM, partner dose 1 µM) | 172%
CCc1ccc(CCOc2ccc(CC3SC(=O)NC3=O)cc2)nc1 (stereo unspecified) [pioglitazone] + CCCCCCCCCCCC1=C(O)C(=O)C=C(O)C1=O [Embelin] (first compound 2 µM, partner dose 1.2 µM) | 57.1%
Oc1nc(-c2ccc(C(F)(F)F)cc2)nc2c1CSCC2 + CCCCCCCCCCCC1=C(O)C(=O)C=C(O)C1=O [Embelin] (first compound 2 µM, partner dose 1.2 µM) | 32.4%
Cc1cc([N+](=O)[O-])ccc1NS(=O)(=O)c1cc(Cl)ccc1Cl + COc1cc(N2CCC(N3CCN(C)CC3)CC2)ccc1Nc1ncc(Cl)c(Nc2ccccc2S(=O)(=O)C(C)C)n1 [NVP-TAE684] (first compound 1 µM, partner dose 0.08 µM) | 97.1%
COc1cc2ncnc(Nc3ccc(Oc4ccccc4)cc3)c2cc1OC + Cn1cc(/C=C2\C(=O)Nc3cccnc32)c2ccccc21 [GW441756] (first compound 2 µM, partner dose 0.4 µM) | 113%
CN(C)S(=O)(=O)c1ccc2c(c1)/C(=C/c1cc3c([nH]1)CCCC3)C(=O)N2 + O=C1NC(=O)/C(=C/c2ccc(-c3ccc(F)cc3O)o2)S1 [AS252424] (first compound 0.4 µM, partner dose 1 µM) | 266%
COc1cc2ncnc(Nc3ccc(Oc4ccccc4)cc3)c2cc1OC + CCCCCCCCCCCC1=C(O)C(=O)C=C(O)C1=O [Embelin] (first compound 2 µM, partner dose 1.2 µM) | 36.4%
O=C(O)c1ccc(-c2c[nH]c3ncc(-c4ccccc4)cc23)cc1C1CCCC1 + COc1cc2ncnc(Nc3ccc(Oc4ccccc4)cc3)c2cc1OC [SrcI1] (first compound 0.16 µM, partner dose 2 µM) | 57.9%
NCC(=O)Nc1ccc(-n2nc(C(F)(F)F)cc2-c2ccc3c(ccc4ccccc43)c2)cc1 + Oc1cc(-c2nc(-c3ccccc3)[nH]c2-c2ccncc2)ccc1Cl [L779450] (first compound 1 µM, partner dose 0.2 µM) | 39.6%
COc1cc2c(Oc3ccc4[nH]c(C)cc4c3F)ncnc2cc1OCCCN1CCCC1 [cediranib] + O=C1NC(=O)/C(=C/c2ccc(-c3ccc(F)cc3O)o2)S1 [AS252424] (first compound 0.4 µM, partner dose 1 µM) | 68.3%

3 entries from above in another layout:
COc1cc2ncnc(Nc3ccc(Oc4ccccc4)cc3)c2cc1OC + CCCCCCCCCCCC1=C(O)C(=O)C=C(O)C1=O [Embelin] (first compound 2 µM, partner dose 1.2 µM)
  cleaved PARP positive nuclei fraction: 36.4%
O=C(O)c1ccc(-c2c[nH]c3ncc(-c4ccccc4)cc23)cc1C1CCCC1 + COc1cc2ncnc(Nc3ccc(Oc4ccccc4)cc3)c2cc1OC [SrcI1] (first compound 0.16 µM, partner dose 2 µM)
  cleaved PARP positive nuclei fraction: 57.9%
NCC(=O)Nc1ccc(-n2nc(C(F)(F)F)cc2-c2ccc3c(ccc4ccccc43)c2)cc1 + Oc1cc(-c2nc(-c3ccccc3)[nH]c2-c2ccncc2)ccc1Cl [L779450] (first compound 1 µM, partner dose 0.2 µM)
  cleaved PARP positive nuclei fraction: 39.6%

(list continues)

SMILES | cleaved PARP positive nuclei fraction
CN(C)S(=O)(=O)c1ccc2c(c1)/C(=C/c1cc3c([nH]1)CCCC3)C(=O)N2 + Cn1cc(/C=C2\C(=O)Nc3cccnc32)c2ccccc21 [GW441756] (first compound 0.4 µM, partner dose 0.4 µM) | 107%
N#Cc1c(O)c2c(-c3ccc(-c4ccccc4O)cc3)csc2[nH]c1=O + Cn1cc(/C=C2\C(=O)Nc3cccnc32)c2ccccc21 [GW441756] (first compound 2 µM, partner dose 0.4 µM) | 123%
O=C(Nc1ccccc1)c1cc([N+](=O)[O-])ccc1Cl + CCCCCCCCCCCC1=C(O)C(=O)C=C(O)C1=O [Embelin] (first compound 2 µM, partner dose 1.2 µM) | 50%
CCc1ccc(CCOc2ccc(CC3SC(=O)NC3=O)cc2)nc1 (stereo unspecified) [pioglitazone] + O=C(Nc1ccccc1)c1cc([N+](=O)[O-])ccc1Cl [GW9662] (first compound 2 µM, partner dose 2 µM) | 25.6%
COc1ccc2c(c1)CCC1C2CCC2(C)C(NCCCCCCN3C(=O)C=CC3=O)CCC12 (stereo unspecified) + CCCCCCCCCCCC1=C(O)C(=O)C=C(O)C1=O [Embelin] (first compound 0.4 µM, partner dose 1.2 µM) | 65.7%
Oc1cc(-c2nc(-c3ccccc3)[nH]c2-c2ccncc2)ccc1Cl + CCCCCCCCCCCC1=C(O)C(=O)C=C(O)C1=O [Embelin] (first compound 0.2 µM, partner dose 1.2 µM) | 65.4%
Oc1cc(-c2nc(-c3ccccc3)[nH]c2-c2ccncc2)ccc1Cl + Cc1cc([N+](=O)[O-])ccc1NS(=O)(=O)c1cc(Cl)ccc1Cl [FH535] (first compound 0.2 µM, partner dose 1 µM) | 30%
COc1cc2c(Oc3ccc4[nH]c(C)cc4c3F)ncnc2cc1OCCCN1CCCC1 [cediranib] + CCCCCCCCCCCC1=C(O)C(=O)C=C(O)C1=O [Embelin] (first compound 0.4 µM, partner dose 1.2 µM) | 52.2%
NCC(=O)Nc1ccc(-n2nc(C(F)(F)F)cc2-c2ccc3c(ccc4ccccc43)c2)cc1 + Cn1cc(/C=C2\C(=O)Nc3cccnc32)c2ccccc21 [GW441756] (first compound 1 µM, partner dose 0.4 µM) | 90.4%
Oc1nc(-c2ccc(C(F)(F)F)cc2)nc2c1CSCC2 + O=c1cc(-c2cccc3c2Sc2ccccc2S3)oc(N2CCOCC2)c1 [KU55933] (first compound 2 µM, partner dose 1 µM) | 25.8%
O=C(O)C(=O)Nc1sc2c(c1C(=O)O)CCNC2 + O=C1NC(=O)/C(=C/c2ccc(-c3ccc(F)cc3O)o2)S1 [AS252424] (first compound 1.66667 µM, partner dose 1 µM) | 45.6%
COC(=O)c1sccc1S(=O)(=O)Nc1ccc(Nc2ccccc2)cc1OC + COc1cc(N2CCC(N3CCN(C)CC3)CC2)ccc1Nc1ncc(Cl)c(Nc2ccccc2S(=O)(=O)C(C)C)n1 [NVP-TAE684] (first compound 1 µM, partner dose 0.08 µM) | 106%
NCC(=O)Nc1ccc(-n2nc(C(F)(F)F)cc2-c2ccc3c(ccc4ccccc43)c2)cc1 + COc1ccc(-c2ccc3c(N4CCOCC4)nc(N4C[C@@H](C)O[C@@H](C)C4)nc3n2)cc1CO [KU0063794] (first compound 1 µM, partner dose 0.02 µM) | 1970%
CN(C)S(=O)(=O)c1ccc2c(c1)/C(=C/c1cc3c([nH]1)CCCC3)C(=O)N2 + N#Cc1c(O)c2c(-c3ccc(-c4ccccc4O)cc3)csc2[nH]c1=O [A769662] (first compound 0.4 µM, partner dose 2 µM) | 117%
CN(C)S(=O)(=O)c1ccc2c(c1)/C(=C/c1cc3c([nH]1)CCCC3)C(=O)N2 + Oc1nc(-c2ccc(C(F)(F)F)cc2)nc2c1CSCC2 [XAV939] (first compound 0.4 µM, partner dose 2 µM) | 58.2%
COc1cc2ncnc(Nc3ccc(Oc4ccccc4)cc3)c2cc1OC + Oc1cc(-c2nc(-c3ccccc3)[nH]c2-c2ccncc2)ccc1Cl [L779450] (first compound 2 µM, partner dose 0.2 µM) | 122%
NCC(=O)Nc1ccc(-n2nc(C(F)(F)F)cc2-c2ccc3c(ccc4ccccc43)c2)cc1 + CCCCCCCCCCCC1=C(O)C(=O)C=C(O)C1=O [Embelin] (first compound 1 µM, partner dose 1.2 µM) | 35.2%
COc1cc2ncnc(Nc3ccc(Oc4ccccc4)cc3)c2cc1OC + c1cc(-c2cnn3cc(-c4ccc(OCCN5CCCCC5)cc4)cnc23)ccn1 [Dorsomorphin] (first compound 2 µM, partner dose 0.4 µM) | 115%

Source: the supplement of paper PMC4604168 (melanoma cell lines)
